# Experimental data taken from the supplement of paper PMC8728848.
# The other results are listed elsewhere or left out.
# B1: SJCP1531 (Schistosoma japonicum) (protein)
# chain: MFKVRIINLVNISTVLLLINLLQTKSQVNVEQLVTVLEVNIKAQLKNKTTEVLVEWNPLYQDNSMPEYRKLLDETCKLFLPFVNEKVPPSTYGGECTNANFSEAPQDGSYSRVNAELRLIYKYSDNPQIQTDRLQDDLNDREEFITSESSFVAYNPKFTVKIEKLFIPISESQTTPPPTTAKNDASKKDDDDNGGEDSKAPIDTFAMTASGNKGKKDDDDNGGEDSKAPIDTFAMTASGSKDERSTWTIIGIITLVVLIFVVIGGGITVFVKRC
# Legend:
# Test in all cases: glycan array binding signal (z-score within array); higher = stronger binding
# Details in all cases: glycan notation: IUPAC condensed, linker removed
# [1] = biological target: Fuc(a1-2)[GalNAc(a1-3)]Gal(b1-3)GlcNAc(b1-6)GalNAc
# How it was run: (§1)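 The Consortium for Functional Glycomics database supplied 3228 glycan arrays, of which those lacking an available protein sequence were dropped. The binding signal, a within-array Z-score, was averaged across arrays of the same protein sequence and across linkers. Negative scores can be read as non-binding.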
# [2] = biological target: Fuc(a1-2)[GalNAc(a1-3)]Gal(b1-4)Glc
# How it was run: as §1
# [3] = biological target: Fuc(a1-2)[GalNAc(a1-3)]Gal(b1-4)GlcNAc
# How it was run: as §1
# [4] = biological target: Fuc(a1-2)[GalNAc(a1-3)]Gal(b1-4)GlcNAc(b1-2)Man
# How it was run: as §1
# [5] = biological target: Fuc(a1-2)[GalNAc(a1-3)]Gal(b1-4)GlcNAc(b1-2)Man(a1-3)[Fuc(a1-2)[GalNAc(a1-3)]Gal(b1-4)GlcNAc(b1-2)Man(a1-6)]Man(b1-4)GlcNAc(b1-4)GlcNAc
# How it was run: as §1
# [6] = biological target: Fuc(a1-2)[GalNAc(a1-3)]Gal(b1-4)GlcNAc(b1-2)Man(a1-3)[Fuc(a1-2)[GalNAc(a1-3)]Gal(b1-4)GlcNAc(b1-2)Man(a1-6)]Man(b1-4)GlcNAc(b1-4)[Fuc(a1-6)]GlcNAc
# How it was run: as §1
# [7] = biological target: Fuc(a1-2)[GalNAc(a1-3)]Gal(b1-4)GlcNAc(b1-3)Gal(b1-4)GlcNAc
# How it was run: as §1
# [8] = biological target: Fuc(a1-2)[GalNAc(a1-3)]Gal(b1-4)GlcNAc(b1-3)Gal(b1-4)GlcNAc(b1-3)Gal(b1-4)GlcNAc
# How it was run: as §1
# [9] = biological target: Fuc(a1-2)[GalNAc(a1-3)]Gal(b1-4)GlcNAc(b1-3)GalNAc
# How it was run: as §1
# [10] = biological target: Fuc(a1-2)[GalNAc(a1-3)]Gal(b1-4)GlcNAc(b1-3)[Fuc(a1-2)[GalNAc(a1-3)]Gal(b1-4)GlcNAc(b1-6)]GalNAc
# How it was run: as §1
# [11] = biological target: Fuc(a1-2)[GalNAc(a1-3)]Gal(b1-4)GlcNAc(b1-6)GalNAc
# How it was run: as §1
# [12] = biological target: Fuc(a1-2)[GalNAc(a1-3)]Gal(b1-4)[Fuc(a1-3)]GlcNAc
# How it was run: as §1
# [13] = biological target: Fuc(a1-2)[GalNAc(a1-3)]Gal(b1-4)[Fuc(a1-3)]GlcNAc(b1-3)GalNAc
# How it was run: as §1
# [14] = biological target: Fuc(a1-2)[GalNAc(a1-4)]Gal(b1-4)GlcNAc
# How it was run: as §1
# [15] = biological target: Fuc(a1-2)[GalNAc(b1-3)]Gal
# How it was run: as §1
# Fuc(a1-3)GlcNAc = biological target: Fuc(a1-3)GlcNAc
# How it was run: as §1
# [16] = biological target: Fuc(a1-3)[Gal(b1-4)]Glc6S
# How it was run: as §1
# [17] = biological target: Fuc(a1-3)[Gal(b1-4)]GlcNAc
# How it was run: as §1
# [18] = biological target: Fuc(a1-3)[Gal(b1-4)]GlcNAc(b1-2)Man
# How it was run: as §1
# [19] = biological target: Fuc(a1-3)[Gal(b1-4)]GlcNAc(b1-2)Man(a1-3)[Fuc(a1-3)[Gal(b1-4)]GlcNAc(b1-2)Man(a1-6)]Man(b1-4)GlcNAc(b1-4)GlcNAc
# How it was run: as §1
# [20] = biological target: Fuc(a1-3)[Gal(b1-4)]GlcNAc(b1-2)Man(a1-3)[Fuc(a1-3)[Gal(b1-4)]GlcNAc(b1-2)Man(a1-6)]Man(b1-4)GlcNAc(b1-4)[Fuc(a1-6)]GlcNAc
# How it was run: as §1
# [21] = biological target: Fuc(a1-3)[Gal(b1-4)]GlcNAc(b1-3)Gal(b1-3)[Fuc(a1-4)]GlcNAc
# How it was run: as §1
# [22] = biological target: Fuc(a1-3)[Gal(b1-4)]GlcNAc(b1-3)Gal(b1-4)[Fuc(a1-3)]GlcNAc
# How it was run: as §1
# [23] = biological target: Fuc(a1-3)[Gal(b1-4)]GlcNAc(b1-3)Gal(b1-4)[Fuc(a1-3)]GlcNAc(b1-3)Gal(b1-4)[Fuc(a1-3)]GlcNAc
# How it was run: as §1
# [24] = biological target: Fuc(a1-3)[Gal(b1-4)]GlcNAc(b1-3)GalNAc
# How it was run: as §1
# [25] = biological target: Fuc(a1-3)[Gal(b1-4)]GlcNAc(b1-6)GalNAc
# How it was run: as §1
# [26] = biological target: Fuc(a1-3)[Gal(b1-4)]GlcNAc(b1-6)[Gal(b1-3)GlcNAc(b1-3)]Gal(b1-4)Glc
# How it was run: as §1
# [27] = biological target: Fuc(a1-3)[Gal(b1-4)]GlcNAc6S
# How it was run: as §1
# [28] = biological target: Fuc(a1-3)[Gal3S(b1-4)]Glc
# How it was run: as §1
# [29] = biological target: Fuc(a1-3)[Gal3S(b1-4)]GlcNAc
# How it was run: as §1
# [30] = biological target: Fuc(a1-3)[Gal3S(b1-4)]GlcNAc6S
# How it was run: as §1
# [31] = biological target: Fuc(a1-3)[GalNAc(b1-4)]GlcNAc
# How it was run: as §1
# [32] = biological target: Fuc(a1-3)[GalNAc(b1-4)]GlcNAc6S
# How it was run: as §1
# Fuc(a1-4)GlcNAc = biological target: Fuc(a1-4)GlcNAc
# How it was run: as §1
# Fuc(b1-3)GlcNAc = biological target: Fuc(b1-3)GlcNAc
# How it was run: as §1
# Gal(a1-2)Gal = biological target: Gal(a1-2)Gal
# How it was run: as §1
# Gal(a1-3)Gal = biological target: Gal(a1-3)Gal
# How it was run: as §1
binder,measurement,setting,value
B1,glycan array binding signal (z-score),[1],-1.96
same,glycan array binding signal (z-score),[2],0.645
same,glycan array binding signal (z-score),[3],-0.118
same,glycan array binding signal (z-score),[4],-0.514
same,glycan array binding signal (z-score),[5],-0.814
same,glycan array binding signal (z-score),[6],0.585
same,glycan array binding signal (z-score),[7],-0.095
same,glycan array binding signal (z-score),[8],0.03
same,glycan array binding signal (z-score),[9],0.123
same,glycan array binding signal (z-score),[10],1.54
same,glycan array binding signal (z-score),[11],-1.98
same,glycan array binding signal (z-score),[12],0.432
same,glycan array binding signal (z-score),[13],0.07
same,glycan array binding signal (z-score),[14],0.747
same,glycan array binding signal (z-score),[15],0.595
same,glycan array binding signal (z-score),Fuc(a1-3)GlcNAc,0.494
same,glycan array binding signal (z-score),[16],0.907
same,glycan array binding signal (z-score),[17],0.487
same,glycan array binding signal (z-score),[18],0.026
same,glycan array binding signal (z-score),[19],-1.06
same,glycan array binding signal (z-score),[20],0.842
same,glycan array binding signal (z-score),[21],0.404
same,glycan array binding signal (z-score),[22],-0.673
same,glycan array binding signal (z-score),[23],0.726
same,glycan array binding signal (z-score),[24],0.934
same,glycan array binding signal (z-score),[25],1.34
same,glycan array binding signal (z-score),[26],0.644
same,glycan array binding signal (z-score),[27],1.41
same,glycan array binding signal (z-score),[28],-0.677
same,glycan array binding signal (z-score),[29],0.241
same,glycan array binding signal (z-score),[30],0.461
same,glycan array binding signal (z-score),[31],0.047
same,glycan array binding signal (z-score),[32],-0.037
same,glycan array binding signal (z-score),Fuc(a1-4)GlcNAc,-0.391
same,glycan array binding signal (z-score),Fuc(b1-3)GlcNAc,0.027
same,glycan array binding signal (z-score),Gal(a1-2)Gal,-0.287
same,glycan array binding signal (z-score),Gal(a1-3)Gal,0.7

# 2 consecutive entries from above, for reference:
binder,measurement,setting,value
B1,glycan array binding signal (z-score),[21],0.404
same,glycan array binding signal (z-score),[22],-0.673
